# PubChem BioAssay AID504808 – Drosophila RNAi Screening Center – 2011
# Test: 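Fly genes required to hold E2F transcription in check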 (primary screen)
# System: Drosophila S2 cells
# Knock-down reagent: long dsRNA against Drosophila genes
# Measurement: 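Dual luciferase plate measurements; E2F-specific signal taken as firefly over Renilla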
# Scale: E2F firefly: higher = more E2F reporter activity; Renilla normaliser: higher = more normaliser reporter signal
# Call rule: 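Called active if the normalised E2F reporter went up by over 50%; the cutoff is arbitrary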
# In all, the deposit lists about 21,000 reagents; shown is an unselected part of those with a known target gene and a result. In the full data, 18 (0.084%) are marked active. 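Raw counts without plate normalisation, one of two replicates; the ratio scores behind the calls were not deposited.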 Unmarked entries are inactive. A plus sign joins genes that one reagent is predicted to hit. Not given: the amount of reagent, the time to read-out.
The opening 9 records, to show the layout:
Target gene,DRSC id,"E2F firefly, rep 1","Renilla normaliser, rep 1"
Zip89B,DRSC16128,1.22e5,7114
CG8701,DRSC07237,2707,218
Tim10 + CG42497,DRSC04664,88764,3813
inaF-C,DRSC18902,81390,2430
CG4896,DRSC00671,82735,3638
htl,DRSC16968,72350,3675
mew,DRSC18971,73598,3224
mew,DRSC20352,1.32e5,5928
Coa7,DRSC20967,1.43e5,6324

The list itself, from the first entry:
Target gene,DRSC id,"E2F firefly, rep 1","Renilla normaliser, rep 1"
Zip89B,DRSC16128,1.22e5,7114
CG8701,DRSC07237,2707,218
Tim10 + CG42497,DRSC04664,88764,3813
inaF-C,DRSC18902,81390,2430
CG4896,DRSC00671,82735,3638
htl,DRSC16968,72350,3675
mew,DRSC18971,73598,3224
mew,DRSC20352,1.32e5,5928
Coa7,DRSC20967,1.43e5,6324
CG32054,DRSC10684,1.23e5,6461
CG31224,DRSC15272,50235,3225
CG31224,DRSC16290,76197,4254
CG8613,DRSC07222,2965,185
CG7675,DRSC16280,63759,3172
CG3081,DRSC18571,75417,4207
Rpt3R,DRSC16501,99209,7437
CG13933,DRSC08402,71326,3123
Elp2,DRSC06095,3008,177
l(3)76BDm,DRSC11047,75362,3257
CG32204,DRSC09574,72221,2984
CG2063,DRSC06811,1.71e5,5559
FASN2,DRSC00167,1.33e5,5951
FASN2,DRSC00610,86821,3956
Taf6,DRSC11299,73390,3742
CG12481,DRSC19461,2.26e5,7973
LRP1,DRSC07238,1.32e5,4694
TwdlJ,DRSC15812,1.04e5,6882
PHDP,DRSC04635,1.00e5,4185
ncm,DRSC02179,63330,4266
CG40551 (retired record),DRSC21229,71691,5034
eIF2beta,DRSC11341,60213,5810
RpL10,DRSC11947,74547,6909
Flo1,DRSC07427,80985,3478
Cpsf160,DRSC05968,2940,210
Nulp1,DRSC09677,80621,34
pan,DRSC17176,1874,768
tmod,DRSC13993,84603,2680
tmod,DRSC14314,1.09e5,6727
tmod,DRSC15076,1.30e5,6927
tmod,DRSC17062,1850,844
Edc3,DRSC10620,66870,3945
CG7639,DRSC07026,1.02e5,4345
Ir94c,DRSC13539,88192,2819
Phf5a,DRSC03261,1.41e5,5515
spz4,DRSC02410,1.27e5,4988
t-Grip128,DRSC07853,1.12e5,4231
BCL7-like,DRSC17729,8221,804
CG3097,DRSC18275,71049,4428
Odc2,DRSC07483,1.44e5,5418
CG8008,DRSC07053,3115,197
Taz,DRSC07704,1.04e5,4443
hng1,DRSC04555,71352,3180
CG4281,DRSC18521,1788,972
RabX1,DRSC04678,99612,4817
RpL36,DRSC18708,55978,5273
fd102C,DRSC17203,1.12e5,5018
GstD2,DRSC16684,1.42e5,7127
SIFaR,DRSC13467,84923,2371
SIFaR,DRSC14266,1.50e5,8137
CG5167,DRSC15728,1.50e5,7114
wuc,DRSC06152,97692,3618
unc-13,DRSC17192,86702,2032
unc-13,DRSC17193,77945,2092
unc-13,DRSC17223,1718,884
CG8252,DRSC07126,2808,214
Jig,DRSC14974,1.32e5,6981
Rab2,DRSC05017,81320,3538
CG8360,DRSC03085,1.35e5,5285
ppk21,DRSC14466,1.35e5,6391
Mco3,DRSC15926,1.22e5,6572
ko,DRSC11893,1.31e5,6841
CG17359,DRSC10265,1.56e5,6846
mthl7,DRSC10852,1.03e5,4038
CG14369,DRSC14831,1.14e5,6884
CG1724,DRSC20548,1.33e5,6116
Scp2,DRSC13166,93319,2268
Scp2,DRSC16854,1.11e5,6316
dnr1,DRSC03948,1.40e5,5351
dnr1,DRSC04122,1.09e5,4841
btz,DRSC14566,1634,820
Gdap2,DRSC06789,1.49e5,5266
Gdap2,DRSC06790,1.59e5,5517
CG18747,DRSC15384,1.44e5,7043
CG14689,DRSC14912,1.33e5,6442
